The other results are listed elsewhere or left out.
target: OsWRKY34 (Oryza sativa, UniProt Q0JBA9 1-250); assay: protein-binding microarray (RPBM); PBS, 2% BSA, 51.3 ng/ul salmon testes DNA, 50 uM zinc acetate, 200 nM TF, 25 C, 1 h; high values mean tight binding; conditions: protein: recombinant; tags: N-terminal polyhistidine and DsRed monomer fusion (pET32a); label: CyDye5-dUTP incorporated in the synthesized complementary strand; 3' TTTTT single-stranded linker to array surface; dsDNA, one strand shown
Procedure, shortened: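 For the binding signal, per-feature fluorescence intensity was read in arbitrary units on an Axon 4000B scanner. Before scanning, a 2% BSA-blocked custom Agilent array made double-stranded with Cy5-dUTP was washed after 1 h at 25 °C with 200 nM protein and 50 µM zinc acetate. The proteins were Ni–NTA-purified transcription factors with N-terminal polyhistidine and DsRed fusions, expressed in E. coli BL21-CodonPlus.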

Sequences of proteins named here, by UniProt entry; tags and fusion partners are left off.
UniProt Q0JBA9, entry or part of it: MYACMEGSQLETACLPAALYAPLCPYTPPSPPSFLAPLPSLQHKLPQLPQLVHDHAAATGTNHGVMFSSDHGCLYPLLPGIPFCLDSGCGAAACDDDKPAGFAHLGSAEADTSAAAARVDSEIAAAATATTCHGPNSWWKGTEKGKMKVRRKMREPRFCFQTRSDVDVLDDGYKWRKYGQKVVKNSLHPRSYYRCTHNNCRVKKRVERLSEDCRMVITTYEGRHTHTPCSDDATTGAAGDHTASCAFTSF

Sequence	binding signal
AGCGTGTTTACTACTCTTATTGCTACTAGTACGTGTGTTTCGGAGTCACCTAGTGCAG	9110 fluorescence intensity (a.u.)
TGTAGACGGCCGGTCACACTATCTTTATGCTGAGTCATGTCGGAGTCACCTAGTGCAG	8910 fluorescence intensity (a.u.)
GCTTGCCTGCTTGGGCGGCAGCTTGGATTCCCACGTTTTCCGGAGTCACCTAGTGCAG	8220 fluorescence intensity (a.u.)
CAATCTCATTAGCTATCTATTTCATTAGTTCTCTATTGTACGGAGTCACCTAGTGCAG	8100 fluorescence intensity (a.u.)
CCGCTCGCGCCGCCCCTCGCCGTCGCCCGTCGCCGGCGCCCGGAGTCACCTAGTGCAG	12000 fluorescence intensity (a.u.)
GAATAAGACGAACGGTCAAACATGTGCTAAAAAGTCAACGCGGAGTCACCTAGTGCAG	13400 fluorescence intensity (a.u.)
CCTTGCATCAGTTAGTCAACTGCTTTAGTAGTTCTGTTACCGGAGTCACCTAGTGCAG	9540 fluorescence intensity (a.u.)
AGAGGGTGGTAAGTGGGCTGCGAGCTAGAGCGTATATTCTCGGAGTCACCTAGTGCAG	8630 fluorescence intensity (a.u.)
ACACACTAGCTCCTAGCTTGGCTCTCACTCTCTCTCTAGACGGAGTCACCTAGTGCAG	8280 fluorescence intensity (a.u.)
TGTCACGCAAGCCGTAATCCCGTTCCGGGCCATTGGCCCACGGAGTCACCTAGTGCAG	8630 fluorescence intensity (a.u.)
TCTTTCTTTGTTGTTGCTATGGCTGAGCGAGGGAGCCAAACGGAGTCACCTAGTGCAG	9460 fluorescence intensity (a.u.)
TTTTGCTAGTTATCATTTATTTGTCATTTATTTTGCTAGTCGGAGTCACCTAGTGCAG	8050 fluorescence intensity (a.u.)
GCATTTCTTACATGTAGAGTGTCTTCTCCATTTCGTACCACGGAGTCACCTAGTGCAG	9540 fluorescence intensity (a.u.)
TACGTATCTACTATAGTCTTATCATCAGTGTATAAGTGACCGGAGTCACCTAGTGCAG	8340 fluorescence intensity (a.u.)
AGTCGATCGATCTTCTTCCGCCGCCTGCGTACGCCCATCTCGGAGTCACCTAGTGCAG	11700 fluorescence intensity (a.u.)
CTGGTCATCATTTCACACCCATATACTGTGTCCAAAGTCCCGGAGTCACCTAGTGCAG	8060 fluorescence intensity (a.u.)
TCATCTCCTCGTCTCGCCCCGCTCCAAGCGCGCCGCCATGCGGAGTCACCTAGTGCAG	9370 fluorescence intensity (a.u.)
TTCACAACACTTGTACACTCGCTCCTATGAACGGATGCACCGGAGTCACCTAGTGCAG	10200 fluorescence intensity (a.u.)
TTGCCTTGTCGCAGCACGGCGGCCGCCCTATCTCTACCTCCGGAGTCACCTAGTGCAG	10200 fluorescence intensity (a.u.)
GTTGCTGTGTTCTGTCTTCTCCATAGACAGTGTAGTGATTCGGAGTCACCTAGTGCAG	9330 fluorescence intensity (a.u.)
ACTCTTCCGCACCAACCTGGATGTTTATTACGCTCCATCACGGAGTCACCTAGTGCAG	11200 fluorescence intensity (a.u.)

Sequence	binding signal
TTTGGTTGAGCGTATATATATGTTTGTGTGGCATCTTTTTCGGAGTCACCTAGTGCAG	8910 fluorescence intensity (a.u.)
AATTAATCATGAGCTAATAGCTCACCTCGTTTTGCGTATCCGGAGTCACCTAGTGCAG	8800 fluorescence intensity (a.u.)
TATCCACCACCTAGTTGCTGCCACCTCCTGAGAACCAAGCCGGAGTCACCTAGTGCAG	8810 fluorescence intensity (a.u.)
ATGGTGTTTCTTAATTGCTTTTTGCCTTTTATTATATCTACGGAGTCACCTAGTGCAG	8510 fluorescence intensity (a.u.)
AGAACCAATCCATCTTTACTGAACTTCTTTGGCATTCATTCGGAGTCACCTAGTGCAG	12000 fluorescence intensity (a.u.)
CTCTATAGACCGCTTGAACATCATTTATTATTTATTTTTACGGAGTCACCTAGTGCAG	8830 fluorescence intensity (a.u.)
AACTAGCTAAGTCCGAATCCAACACGAGTCCATCAGCTCACGGAGTCACCTAGTGCAG	8620 fluorescence intensity (a.u.)
TGTGCCAGCCACCATGCACCAGCCGGCTACCTAGCGGCTCCGGAGTCACCTAGTGCAG	8030 fluorescence intensity (a.u.)
GTTGCTTCTCCATCTTGGCGGGCCCCACAGTTTCCTCGAGCGGAGTCACCTAGTGCAG	11100 fluorescence intensity (a.u.)
TCTGCCGCTGCTACGCTGGATACACACGCGCTCGCTTTCTCGGAGTCACCTAGTGCAG	10100 fluorescence intensity (a.u.)
GGCAAAGTCTTTCTGGCACTATAGCTCTATTATTGCAGTTCGGAGTCACCTAGTGCAG	8570 fluorescence intensity (a.u.)
ATTGTTTTGCATTTACTATTAATTTTACTTTGAGGTTATTCGGAGTCACCTAGTGCAG	8930 fluorescence intensity (a.u.)
TGTGGGTAGTATAGGTATATTGTAGGAATGTTATCAAATTCGGAGTCACCTAGTGCAG	9520 fluorescence intensity (a.u.)
GCTACACTTAACGCTGTCCACAACTCCACATACGCGTTACCGGAGTCACCTAGTGCAG	8440 fluorescence intensity (a.u.)
ATTTGTTCTTTTGGATCTGTTGTATTTAGATTATTCCTATCGGAGTCACCTAGTGCAG	8890 fluorescence intensity (a.u.)
CTCCGTCCCATAATATAAGGGATTTTGACTTTTTACTTGCCGGAGTCACCTAGTGCAG	11200 fluorescence intensity (a.u.)
GGTTGATCATTTGCGGCTTGTCTTGCTTCTCGTGCCGCTGCGGAGTCACCTAGTGCAG	8240 fluorescence intensity (a.u.)
GGGGCTGATACATTTATGATCTTTTCTTCCTTCCTTTCCTCGGAGTCACCTAGTGCAG	10900 fluorescence intensity (a.u.)
ATGGCCACGCCTCCACCCGTCACTTCGCTGCATCGCTGACCGGAGTCACCTAGTGCAG	9700 fluorescence intensity (a.u.)
CCACCGCCGCTTCGCTTCACTCTCGCGTTCGAGTCACACACGGAGTCACCTAGTGCAG	10000 fluorescence intensity (a.u.)
GCAATTCTTGCGGGTTTGTGTTTTTTTTTTCTTCTTCTTCCGGAGTCACCTAGTGCAG	8030 fluorescence intensity (a.u.)

Sequence	binding signal
ATCTCTCTCATATTCCTTCGATCTGCAGCTTGTACGTTGGCGGAGTCACCTAGTGCAG	14500 fluorescence intensity (a.u.)
TTCCGACTGGTCATCTCATCGATCATCCGCGATTCTTTTTCGGAGTCACCTAGTGCAG	12200 fluorescence intensity (a.u.)
GCACCGAGATCTTCTGTGCCTACTTCGCATCATACCTCGCCGGAGTCACCTAGTGCAG	8820 fluorescence intensity (a.u.)
AGTGGTTTGAATATTCGTTTTGTTTTGTTACTTTTTTTGACGGAGTCACCTAGTGCAG	15200 fluorescence intensity (a.u.)
GGTAGCAGGTGGGCTGATGTCGTAGGTTCACGTGGGCGCGCGGAGTCACCTAGTGCAG	8920 fluorescence intensity (a.u.)
CTTGTCATTAGTAAATGTTTACGGTAGCACCACATTTTTTCGGAGTCACCTAGTGCAG	8040 fluorescence intensity (a.u.)
AATTAAATATAGACTGGTATCTCCTTTTAGGTTAGCTTTTCGGAGTCACCTAGTGCAG	8170 fluorescence intensity (a.u.)
GCACTTAGATTCTCCTCAAGCTCTTTTTACCGTACCTGTTCGGAGTCACCTAGTGCAG	8180 fluorescence intensity (a.u.)
CCTGTCTACCTATGGAATAGCCCCATGATTCATGAACAACCGGAGTCACCTAGTGCAG	9740 fluorescence intensity (a.u.)
TCTATCTTCTCCATCTTCCACCACTTGTATCCCCTTAGTTCGGAGTCACCTAGTGCAG	9300 fluorescence intensity (a.u.)
CGGTCTTTTTGTTTGGTTATTCGGTTAGGTCTTATATTGCCGGAGTCACCTAGTGCAG	8910 fluorescence intensity (a.u.)
CGTCTGTTTATCCTTTATCTATTTATTCTTCCCCTGGTGTCGGAGTCACCTAGTGCAG	8140 fluorescence intensity (a.u.)
GGATTGTCCTTGTTCTGTTGCGAAAACCCAGCTAAAATAGCGGAGTCACCTAGTGCAG	9370 fluorescence intensity (a.u.)
CAGTGTGTTATCTTTGATCAGTCACCAGGTTGCATTTCTTCGGAGTCACCTAGTGCAG	8880 fluorescence intensity (a.u.)
AGTTTTCTTTGTTCACCTACCGTTTTTTTAGCACGTAGTTCGGAGTCACCTAGTGCAG	10500 fluorescence intensity (a.u.)
GTGCCCATTTTGTCAACGCGCAGTCTCCCTGACTTTCTCTCGGAGTCACCTAGTGCAG	9160 fluorescence intensity (a.u.)
TAAAATTGACTCTTATGGTATAGAAATTCTCATATTTACGCGGAGTCACCTAGTGCAG	8080 fluorescence intensity (a.u.)
TCAATTTTCAACGATGTTTTATTTCAGCTTTGTTTTTGACCGGAGTCACCTAGTGCAG	12700 fluorescence intensity (a.u.)
GCCATAGGACCTTTAGTGTATGGTTTTGTATAGTTTAGGGCGGAGTCACCTAGTGCAG	8080 fluorescence intensity (a.u.)
GCACACACATCGATCGCTAATCCATCAACCTATAGCTTAACGGAGTCACCTAGTGCAG	10900 fluorescence intensity (a.u.)
TCATCGCCGATCGATTGACCATTTGACCTCCAAGATTGTTCGGAGTCACCTAGTGCAG	8140 fluorescence intensity (a.u.)

Quoted at random: 6 entries already listed
Sequence	binding signal
CTCTATAGACCGCTTGAACATCATTTATTATTTATTTTTACGGAGTCACCTAGTGCAG	8830 fluorescence intensity (a.u.)
GCAATTCTTGCGGGTTTGTGTTTTTTTTTTCTTCTTCTTCCGGAGTCACCTAGTGCAG	8030 fluorescence intensity (a.u.)
TCTGCCGCTGCTACGCTGGATACACACGCGCTCGCTTTCTCGGAGTCACCTAGTGCAG	10100 fluorescence intensity (a.u.)
CCTGTCTACCTATGGAATAGCCCCATGATTCATGAACAACCGGAGTCACCTAGTGCAG	9740 fluorescence intensity (a.u.)
ATCTCTCTCATATTCCTTCGATCTGCAGCTTGTACGTTGGCGGAGTCACCTAGTGCAG	14500 fluorescence intensity (a.u.)
GCACACACATCGATCGCTAATCCATCAACCTATAGCTTAACGGAGTCACCTAGTGCAG	10900 fluorescence intensity (a.u.)

In a second layout: results already given.

| Sequence | binding signal |
| --- | --- |
| CTTGTCATTAGTAAATGTTTACGGTAGCACCACATTTTTTCGGAGTCACCTAGTGCAG | 8040 fluorescence intensity (a.u.) |
| TCATCGCCGATCGATTGACCATTTGACCTCCAAGATTGTTCGGAGTCACCTAGTGCAG | 8140 fluorescence intensity (a.u.) |

Following part:

Sequence	binding signal
TACCTTAAAATTCTCTAGTGGTGGTGGTGGTGAAAGGGTTCGGAGTCACCTAGTGCAG	8450 fluorescence intensity (a.u.)
GGAGGTAGTTTATATTTTGTGACGGAGGTAGTATAACGGACGGAGTCACCTAGTGCAG	9180 fluorescence intensity (a.u.)
ACACTTTCTCTCTTGTACACTTTCATTTCACGTGTCTAAACGGAGTCACCTAGTGCAG	17500 fluorescence intensity (a.u.)
AAAACATATACCTTCGTTTCTCTTTTCTTTTCCAGTTCCTCGGAGTCACCTAGTGCAG	9130 fluorescence intensity (a.u.)
ACCGTATACATAGTTTTCACCGTATATTTTCCCATTTCTCCGGAGTCACCTAGTGCAG	9600 fluorescence intensity (a.u.)
GGCTTATCCGTTCAGTTGCCAGCCACTCAAGTTATTGCAACGGAGTCACCTAGTGCAG	8580 fluorescence intensity (a.u.)
CACTCCCAGATATTTGCGCTCTCCTCTTCTTCTTATACCCCGGAGTCACCTAGTGCAG	10800 fluorescence intensity (a.u.)
TCTGAACCTTCTTTACTTGTCCTCAAATGGCCACCTCTTCCGGAGTCACCTAGTGCAG	8260 fluorescence intensity (a.u.)
GTACATTACTCTTCTAATTAGCAACAGGCATGCAAATAATCGGAGTCACCTAGTGCAG	8860 fluorescence intensity (a.u.)
TAGCTTCGTCCACCCAATTTGACTTTCCAATCCATTGTGACGGAGTCACCTAGTGCAG	11100 fluorescence intensity (a.u.)
GTTATGTGCCAATGGAGCTTTGTGTAGTTTGTGAGGGCCACGGAGTCACCTAGTGCAG	9830 fluorescence intensity (a.u.)
GTGGATCGTGGTCTCCGTCTCGTCCCCGCCCACCGCCGCGCGGAGTCACCTAGTGCAG	8320 fluorescence intensity (a.u.)
TCGCCGCGATTCCTCTTCCGCCCGCCGCTGGTCGTCGCCGCGGAGTCACCTAGTGCAG	10100 fluorescence intensity (a.u.)
GGTTGTTGAGCTAGCATTATACGTACATTTAAGTTTGGCACGGAGTCACCTAGTGCAG	11100 fluorescence intensity (a.u.)
TCTTATCTGATGACTACATACCCATTGGTTATCACATTTCCGGAGTCACCTAGTGCAG	9210 fluorescence intensity (a.u.)
TTCTCTTTATTTCTCCACATATAAGTCAAATTTGACCGATCGGAGTCACCTAGTGCAG	8520 fluorescence intensity (a.u.)
GACGGGCGGCGGTGGGGCTGACGCGGGCGACGGAGGGGCTCGGAGTCACCTAGTGCAG	11500 fluorescence intensity (a.u.)
AGGAGAGAAAGGAAGGTGGTGTGGGTGGTTGGTGGTGGTGCGGAGTCACCTAGTGCAG	10300 fluorescence intensity (a.u.)
GTTTAGACATGGTTCACCAGCTGCTTTTTATTATACTTTACGGAGTCACCTAGTGCAG	8850 fluorescence intensity (a.u.)
ATGTAAGATCGACGTATCAGTCAGTGCTACTGCACCAGCGCGGAGTCACCTAGTGCAG	8080 fluorescence intensity (a.u.)
TTTTTAGCCCGCTGCTCTTCTCTCTCCTCATTTATCTTCTCGGAGTCACCTAGTGCAG	10600 fluorescence intensity (a.u.)
